Data reported in PMC13227282.
Results are given in words; binding and its absence hold for the method and conditions named. Binding seen in cells or lysates may run through a third protein. Some entries that bind do so weakly or less than the wild type.

Sequences of proteins named here, by UniProt entry; tags and fusion partners are left off.
UniProt Q03358: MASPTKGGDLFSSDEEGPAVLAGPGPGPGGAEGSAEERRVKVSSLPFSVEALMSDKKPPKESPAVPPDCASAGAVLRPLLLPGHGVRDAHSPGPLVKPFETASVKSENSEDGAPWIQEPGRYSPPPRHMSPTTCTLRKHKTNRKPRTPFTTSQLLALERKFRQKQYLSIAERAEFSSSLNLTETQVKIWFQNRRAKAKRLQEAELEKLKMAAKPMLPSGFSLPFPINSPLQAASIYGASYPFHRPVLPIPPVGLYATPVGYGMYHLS
UniProt Q15796: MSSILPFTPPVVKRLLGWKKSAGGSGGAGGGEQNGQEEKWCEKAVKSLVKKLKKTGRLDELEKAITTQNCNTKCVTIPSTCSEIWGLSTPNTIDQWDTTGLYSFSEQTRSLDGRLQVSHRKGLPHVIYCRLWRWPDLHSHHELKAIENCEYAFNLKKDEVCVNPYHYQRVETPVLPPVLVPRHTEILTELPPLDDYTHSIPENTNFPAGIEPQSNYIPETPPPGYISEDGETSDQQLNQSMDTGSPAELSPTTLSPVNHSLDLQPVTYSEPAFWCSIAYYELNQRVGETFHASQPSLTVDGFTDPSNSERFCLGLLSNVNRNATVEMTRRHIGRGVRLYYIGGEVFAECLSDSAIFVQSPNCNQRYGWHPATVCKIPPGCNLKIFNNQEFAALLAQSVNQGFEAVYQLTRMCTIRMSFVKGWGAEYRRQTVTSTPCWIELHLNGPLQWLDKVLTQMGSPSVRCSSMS

Target: Full-length mouse Msx2 with a C-terminal V5-His tag (mouse) (UniProt Q03358)
Experiment: co-IP; HaCaT cells and Msx2-overexpressing (OE) cells lysed in IP lysis buffer at 4 °C; supernatant incubated overnight at 4 °C with anti-MSX2, anti-SMAD2 or isotype control IgG; Protein A/G PLUS-Agarose beads 8 h at 4 °C; immunoblot with anti-MSX2 and anti-SMAD2

SMAD2 (from UniProt Q15796 1-467) was tested, and the binding was “binds”.
